Measured values: doi:10.1101/2022.08.31.505729
No constants are given. Whether binding was seen depends on the method and setting. In cells and extracts the contact can be indirect. Some binding calls cover weakened binding; strength is not graded here. Sequences can lack the tags named with a protein.

By UniProt entry, the sequences of proteins in these tests, tags left out.
UniProt F4J8D3: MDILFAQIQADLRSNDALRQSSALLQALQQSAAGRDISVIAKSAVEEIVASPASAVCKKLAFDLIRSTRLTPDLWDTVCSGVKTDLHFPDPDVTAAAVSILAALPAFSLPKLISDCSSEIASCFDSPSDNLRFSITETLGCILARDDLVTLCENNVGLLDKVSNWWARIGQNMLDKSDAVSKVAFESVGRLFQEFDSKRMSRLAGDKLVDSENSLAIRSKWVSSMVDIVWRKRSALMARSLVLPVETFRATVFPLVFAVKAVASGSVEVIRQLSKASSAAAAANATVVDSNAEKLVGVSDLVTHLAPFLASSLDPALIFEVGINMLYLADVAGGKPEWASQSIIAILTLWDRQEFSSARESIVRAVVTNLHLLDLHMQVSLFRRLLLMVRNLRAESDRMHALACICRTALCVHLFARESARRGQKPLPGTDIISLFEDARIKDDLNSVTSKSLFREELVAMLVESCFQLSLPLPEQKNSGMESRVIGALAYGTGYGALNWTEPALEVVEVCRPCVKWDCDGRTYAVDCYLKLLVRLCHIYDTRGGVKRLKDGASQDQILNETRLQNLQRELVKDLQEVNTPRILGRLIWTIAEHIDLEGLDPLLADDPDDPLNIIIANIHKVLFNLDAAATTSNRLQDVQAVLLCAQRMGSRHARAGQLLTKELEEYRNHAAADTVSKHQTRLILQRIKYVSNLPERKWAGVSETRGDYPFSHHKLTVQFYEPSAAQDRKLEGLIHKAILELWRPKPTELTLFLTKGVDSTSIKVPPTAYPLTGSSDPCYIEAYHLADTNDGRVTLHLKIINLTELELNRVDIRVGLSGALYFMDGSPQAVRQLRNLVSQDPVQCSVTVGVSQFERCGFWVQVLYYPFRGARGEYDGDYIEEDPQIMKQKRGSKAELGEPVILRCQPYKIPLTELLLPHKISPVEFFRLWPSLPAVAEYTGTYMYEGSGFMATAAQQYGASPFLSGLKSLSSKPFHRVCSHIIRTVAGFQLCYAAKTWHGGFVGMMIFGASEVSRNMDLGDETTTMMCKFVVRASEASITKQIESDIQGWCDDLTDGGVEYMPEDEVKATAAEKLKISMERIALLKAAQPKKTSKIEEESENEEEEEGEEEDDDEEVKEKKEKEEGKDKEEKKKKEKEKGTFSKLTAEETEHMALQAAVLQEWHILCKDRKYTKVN

T1: BAG4-GFP (Arabidopsis thaliana) (UniProt Q8RX71)
T1 sequence: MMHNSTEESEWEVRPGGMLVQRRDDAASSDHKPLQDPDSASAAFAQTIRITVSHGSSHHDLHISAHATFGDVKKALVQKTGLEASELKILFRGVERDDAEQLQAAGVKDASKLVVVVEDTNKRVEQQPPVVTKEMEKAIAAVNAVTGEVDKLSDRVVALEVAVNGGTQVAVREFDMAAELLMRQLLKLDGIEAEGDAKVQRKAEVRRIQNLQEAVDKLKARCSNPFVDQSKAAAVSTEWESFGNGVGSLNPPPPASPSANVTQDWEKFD

T2: nYFP-AP2M (Arabidopsis thaliana) (UniProt O23140)
T2 sequence: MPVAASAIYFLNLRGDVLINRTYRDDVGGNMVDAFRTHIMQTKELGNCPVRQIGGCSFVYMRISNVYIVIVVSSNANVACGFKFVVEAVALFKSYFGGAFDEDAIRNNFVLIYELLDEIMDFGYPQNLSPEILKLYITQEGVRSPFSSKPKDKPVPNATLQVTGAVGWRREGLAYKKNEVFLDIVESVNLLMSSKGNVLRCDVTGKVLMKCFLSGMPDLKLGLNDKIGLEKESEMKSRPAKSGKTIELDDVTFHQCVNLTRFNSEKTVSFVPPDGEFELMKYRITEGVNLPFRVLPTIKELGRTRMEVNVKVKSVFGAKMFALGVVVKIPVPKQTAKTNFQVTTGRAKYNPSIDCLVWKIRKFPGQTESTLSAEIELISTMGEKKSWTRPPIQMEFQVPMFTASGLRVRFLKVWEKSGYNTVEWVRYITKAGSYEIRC


Legend:
[1] = target: T1, BAG4-GFP (Arabidopsis thaliana); experiment: co-IP
[2] = target: T2, nYFP-AP2M (Arabidopsis thaliana); experiment: split reporter

binding [1]	binding [2]	Molecule
binds		TPLATE (TPC subunit detected with α-TPLATE) (from UniProt F4J8D3 1-1176)
	binds weakly	FORMIN-LIKE6 (FH6) (rBiFC fusion) (protein, UniProt Q9FJX6 25-899) EAHRRILHQPLFPESSTPPPPDFQSTPSPPLPDTPDQPFFPENPSTPQQTLFPPPPPPVSADVNGGLPIPTATTQSAKPGKKVAIVISVGIVTLGMLSALAFFLYRHKAKHASDTQKLVTGGGDGGGSRRFQEDSGPPTTTSSTFLYMGTVEPTRVSASESNGGTNGPVNSSPYRKLNSAKRSERYRPSPELQPLPPLAKPPQPSDNSPSALSPSSSSSGEECRDTAFYTPHGSAISSDDGYYTAFPRSANGSLPHSKRTSPRSKFGSAPTTAASRSPEMKHVIIPSIKQKLPPPVQPPPLRGLESDEQELPYSQNKPKFSQPPPPPNRAAFQAITQEKSPVPPPRRSPPPLQTPPPPPPPPPLAPPPPPQKRPRDFQMLRKVTNSEATTNSTTSPSRKQAFKTPSPKTKAVEEVNSVSAGSLEKSGDGDTDPSKPKLKPLHWDKVRASSDRATVWDQLKSSSFQLNEDRMEHLFGCNSGSSAPKEPVRRSVIPLAENENRVLDPKKSQNIAILLRALNVTREEVSEALTDGNPESLGAELLETLVKMAPTKEEEIKLREYSGDVSKLGTAERFLKTILDIPFAFKRVEAMLYRANFDAEVKYLRNSFQTLEEASLELKASRLFLKLLEAVLMTGNRMNVGTNRGDAIAFKLDTLLKLVDIKGVDGKTTLLHFVVQEITRSEGTTTTKDETILHGNNDGFRKQGLQVVAGLSRDLVNVKKSAGMDFDVLSSYVTKLEMGLDKLRSFLKTETTQGRFFDSMKTFLKEAEEEIRKIKGGERKALSMVKEVTEYFHGNAAREEAHPLRIFMVVRDFLGVLDNVCKEVKTMQEMSTSMGSASARSFRISATASLPVLHRYKARQDDTSSDSEHSSNSST
